# No constants are given. Whether binding was seen depends on the method and setting. In cells and extracts the contact can be indirect. Here binding means that the protein was enriched with, or labelled near, the bait; the list need not be complete. Sequences can lack the tags named with a protein.
# Target: T1, GFP::CHDP-1 (xdIs48, Pchdp-1::GFP::CHDP-1) (C. elegans) (UniProt P91027)
# T1 sequence: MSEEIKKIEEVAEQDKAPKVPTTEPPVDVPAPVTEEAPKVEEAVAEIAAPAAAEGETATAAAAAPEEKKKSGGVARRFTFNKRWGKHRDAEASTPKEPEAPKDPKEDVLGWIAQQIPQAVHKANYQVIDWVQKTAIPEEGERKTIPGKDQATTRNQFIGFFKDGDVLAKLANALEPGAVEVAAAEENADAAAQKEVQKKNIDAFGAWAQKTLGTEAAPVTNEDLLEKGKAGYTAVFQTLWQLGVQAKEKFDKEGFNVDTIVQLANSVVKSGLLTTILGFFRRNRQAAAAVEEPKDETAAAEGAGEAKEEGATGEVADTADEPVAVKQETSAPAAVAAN
# Assay: affinity purification with mass spectrometry; worm lysates (Pchdp-1::GFP::CHDP-1, control Pchdp-1::GFP), GFP polyclonal antibody and protein A agarose, gel bands digested, TripleTOF 5600
substance,measurement,value
CED-10 of worm lysate (from UniProt Q03206 1-191),binding,binds

# From publication PMC4944944
